For two molecules, binding results are on record in article PMC11347159, “MUT-7 exoribonuclease activity and localization are mediated by an ancient domain” (Nucleic Acids Research, 2023).

These are yes or no findings as the source states them, for the method shown. Tags and fused reporters may be left off the sequences shown.

What all share (test): pull-down; purified proteins (5 μM) pre-incubated 30 min at 4°C in 20 mM HEPES/NaOH pH 7.5, 150 mM NaCl, 10% glycerol, 0.05% IGEPAL, 2 mM DTT; GST-tagged MUT-16 constructs held on glutathione resin; SDS-PAGE, Coomassie; both purified
For test [1], the target named is T1, GST-tagged MUT-16^584–724 (Caenorhabditis elegans) (UniProt O62011).
T1 sequence: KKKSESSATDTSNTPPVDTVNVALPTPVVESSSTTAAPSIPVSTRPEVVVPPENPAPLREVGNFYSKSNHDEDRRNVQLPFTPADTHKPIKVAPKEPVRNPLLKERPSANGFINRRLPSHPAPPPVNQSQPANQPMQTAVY

Test [2] deals with T2, GST-tagged MUT-16^1–383 (Caenorhabditis elegans) (UniProt O62011).
T2 sequence: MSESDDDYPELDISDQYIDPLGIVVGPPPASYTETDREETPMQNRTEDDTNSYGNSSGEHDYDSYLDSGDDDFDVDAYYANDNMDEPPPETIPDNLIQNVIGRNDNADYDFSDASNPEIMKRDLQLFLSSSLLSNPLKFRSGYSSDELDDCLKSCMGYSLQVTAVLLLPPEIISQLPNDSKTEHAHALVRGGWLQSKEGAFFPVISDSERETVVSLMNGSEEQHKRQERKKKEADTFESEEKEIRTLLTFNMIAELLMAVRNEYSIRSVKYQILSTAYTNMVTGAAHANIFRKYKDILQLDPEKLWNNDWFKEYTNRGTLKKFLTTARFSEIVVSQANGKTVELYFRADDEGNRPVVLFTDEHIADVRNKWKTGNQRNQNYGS

Test [3] addresses T3, GST-tagged MUT-16^1–584 (Caenorhabditis elegans) (UniProt O62011).
T3 sequence: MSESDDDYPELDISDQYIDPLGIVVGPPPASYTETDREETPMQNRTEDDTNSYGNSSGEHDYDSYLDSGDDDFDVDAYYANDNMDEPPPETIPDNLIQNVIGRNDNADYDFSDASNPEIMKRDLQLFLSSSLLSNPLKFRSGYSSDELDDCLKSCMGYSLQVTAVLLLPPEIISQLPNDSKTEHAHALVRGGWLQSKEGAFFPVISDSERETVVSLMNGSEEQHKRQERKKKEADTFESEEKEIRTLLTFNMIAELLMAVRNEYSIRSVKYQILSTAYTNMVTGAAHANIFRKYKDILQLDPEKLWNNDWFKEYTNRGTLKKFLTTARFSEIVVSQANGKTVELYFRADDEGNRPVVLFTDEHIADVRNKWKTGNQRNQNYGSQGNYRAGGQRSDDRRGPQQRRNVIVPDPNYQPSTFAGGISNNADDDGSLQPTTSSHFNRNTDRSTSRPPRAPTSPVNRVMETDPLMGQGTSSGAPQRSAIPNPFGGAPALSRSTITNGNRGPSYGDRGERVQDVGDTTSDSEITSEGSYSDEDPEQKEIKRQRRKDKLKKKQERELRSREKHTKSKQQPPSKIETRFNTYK

B1: MUT-7^CTD/MUT-8^CTD complex (complex, UniProt P34607 633-910; Q19672 322-578)
chain 1: SYRKLKTIPWLELYDILRSHRNPTRSPQRPHDIKVIVDTMLIGFGKNLRRVGIDVILPKDVSDFRKYLKEIERVGGEHLRHIITVPSKSYEALKMDYDNYTIAIPELNNMSPVDQLIEFFDLFNVDIRPEDVYPRCTECNSRLQIKFPGPVLHFLHQYCVIHVQNVYRADMSEFPLEEWWNRMLHINPDDYDGVKVEMSRPSPTSKWIVATVPTGCLHITRQTALHTNLPDGIEVRIHKVPDDEFKRRNLSFYVCGECGTVACDGRGNQASESTSQEC
chain 2: DEDEIDDEDTYGTRGTSNIPMRPFIKDLAPTMLQLLRQDKTDSEKPQSALCTVVQKIDGFAILYTAKRDVINVLLQERSCEGLERSPQLGDVAFFDILPRRIETKDRLIFKIPYTHIAVKKKPDTPDSLLKIDCFKNSVRCFGGVLEMKVKIALSKPELVVEQYHDNTEMNSDHHFYYLKATNGVLVTIPKERLLNHLNSKLSADFDLIAWVVHRKPIGNVSLHIGKGGEAYQQFTNGDIRELPPLSSNQYFMNVRK
For the molecule B1, the binding result in test [1] is “no binding (tested: 5 μM)”.

B2: MUT-7^FL/MUT-8^FL complex (complex, UniProt P34607 1-910; Q19672 1-578)
chain 1: MEEEPYKRKLTKAEKKAKYRTDYAEPLKSRREVLKAIMNGPESERERKVRAKNREFFNEDYRSGVNIYGMAVDMMKAMPDRGKTSGQSLAVWYLEDFGVWLKESGQETELRQKYLTGTIQINALDVCTIGQKQLLSEIFDITKEKFTEDITQLLDAAIKKQDFSVAADMAIQYNLLRDHHFEHLVLPLMLSGKDQTAYKLISNNERMQQQLVEFFDRMVGISVVAVEEMLKPYKETKIMTIPMEKLTGKTLDKLISTIINKNTHEYNFSRELSKFAKNHSQNGNLKALKFNISERYEKGKSDDNYFQHMVETFTKAEDVREPILFYLWSSNDTEKQIDAICFAIYLGIASSSSYQLPNVMRDFFRQPDSKLREAKELLVRRKTLQVPLNGEQLFVFENERRTQIHMVKTESEMNYLCSEIKSLSDEPAPVYVGFDSEWKPSNLTAVHDSKIAIIQLFFKNCVWLVDCVELEKANMADDWWQKFASRLFGDSPVKVVGFDMRNDLDAMATIPALKSSMKIEDTKNAFDLKRLAENVCDIDMEILELPKKTFKLADLTHYLLGLELDKTEQCSNWQCRPLRKKQIVYAALDAVVVVETFKKILSIVEEKNKDADIEKIVRESNVMAPKKDKGHKSYRKLKTIPWLELYDILRSHRNPTRSPQRPHDIKVIVDTMLIGFGKNLRRVGIDVILPKDVSDFRKYLKEIERVGGEHLRHIITVPSKSYEALKMDYDNYTIAIPELNNMSPVDQLIEFFDLFNVDIRPEDVYPRCTECNSRLQIKFPGPVLHFLHQYCVIHVQNVYRADMSEFPLEEWWNRMLHINPDDYDGVKVEMSRPSPTSKWIVATVPTGCLHITRQTALHTNLPDGIEVRIHKVPDDEFKRRNLSFYVCGECGTVACDGRGNQASESTSQEC
chain 2: MHNGYHSYFPPNHYYAQSQPSSSYNPQPQIQQPQTQIYGLVVGYNKYGNRNYLFYTKNIDGFVEISGNIQSLQIGRWLKLTVCQNFVGQYVLDSSNSCGYENWDVLPNHRNSSARFFPKYEANDEGEILITARFDVIVDRKNNLYDFTSYDISYDHIIDDFSLIKSSCQHYDGRSFIVEAQASLAGWVALSVHEDPQKLHTCDAVSRNGYQSLPNPVVDSDVQYLHDTRLLDIMTGNGYVQTPETDVQDQQSSQHQEDVHSQMNSQTSDSYNSSRVVSENREIPPETFRSQSIELNQVDSSLSQTTISSRAAPVIDSNQLSDEDEIDDEDTYGTRGTSNIPMRPFIKDLAPTMLQLLRQDKTDSEKPQSALCTVVQKIDGFAILYTAKRDVINVLLQERSCEGLERSPQLGDVAFFDILPRRIETKDRLIFKIPYTHIAVKKKPDTPDSLLKIDCFKNSVRCFGGVLEMKVKIALSKPELVVEQYHDNTEMNSDHHFYYLKATNGVLVTIPKERLLNHLNSKLSADFDLIAWVVHRKPIGNVSLHIGKGGEAYQQFTNGDIRELPPLSSNQYFMNVRK
Consider B2, for which the binding result in test [2] and in test [3] was “no binding (tested: 5 μM)” throughout.
